These are yes or no findings as the source states them, for the method shown. Some entries that bind do so weakly or less than the wild type. For some of these results: Tags and fused reporters may be left off the sequences shown. No end group written: not given here.
Assays:
[1] = target: polyglutamine-glutathione-S-transferase fusion protein with 62 glutamines (UniProt Q156A1); test: phage ELISA on immobilized polyglutamine-GST
[2] = target: polyglutamine-YFP fusion protein with 81 glutamines (UniProt Q54DK4); test: co-localisation by fluorescence microscopy in co-transfected COS-7 cells

By UniProt entry, the sequences of proteins in these tests, tags left out. Where a name states a change or a piece, a line headed by the entry shows the natural chain unless it says otherwise.
UniProt Q156A1: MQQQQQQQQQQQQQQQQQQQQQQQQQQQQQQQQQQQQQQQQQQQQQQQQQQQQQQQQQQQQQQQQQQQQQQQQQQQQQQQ
UniProt Q54DK4: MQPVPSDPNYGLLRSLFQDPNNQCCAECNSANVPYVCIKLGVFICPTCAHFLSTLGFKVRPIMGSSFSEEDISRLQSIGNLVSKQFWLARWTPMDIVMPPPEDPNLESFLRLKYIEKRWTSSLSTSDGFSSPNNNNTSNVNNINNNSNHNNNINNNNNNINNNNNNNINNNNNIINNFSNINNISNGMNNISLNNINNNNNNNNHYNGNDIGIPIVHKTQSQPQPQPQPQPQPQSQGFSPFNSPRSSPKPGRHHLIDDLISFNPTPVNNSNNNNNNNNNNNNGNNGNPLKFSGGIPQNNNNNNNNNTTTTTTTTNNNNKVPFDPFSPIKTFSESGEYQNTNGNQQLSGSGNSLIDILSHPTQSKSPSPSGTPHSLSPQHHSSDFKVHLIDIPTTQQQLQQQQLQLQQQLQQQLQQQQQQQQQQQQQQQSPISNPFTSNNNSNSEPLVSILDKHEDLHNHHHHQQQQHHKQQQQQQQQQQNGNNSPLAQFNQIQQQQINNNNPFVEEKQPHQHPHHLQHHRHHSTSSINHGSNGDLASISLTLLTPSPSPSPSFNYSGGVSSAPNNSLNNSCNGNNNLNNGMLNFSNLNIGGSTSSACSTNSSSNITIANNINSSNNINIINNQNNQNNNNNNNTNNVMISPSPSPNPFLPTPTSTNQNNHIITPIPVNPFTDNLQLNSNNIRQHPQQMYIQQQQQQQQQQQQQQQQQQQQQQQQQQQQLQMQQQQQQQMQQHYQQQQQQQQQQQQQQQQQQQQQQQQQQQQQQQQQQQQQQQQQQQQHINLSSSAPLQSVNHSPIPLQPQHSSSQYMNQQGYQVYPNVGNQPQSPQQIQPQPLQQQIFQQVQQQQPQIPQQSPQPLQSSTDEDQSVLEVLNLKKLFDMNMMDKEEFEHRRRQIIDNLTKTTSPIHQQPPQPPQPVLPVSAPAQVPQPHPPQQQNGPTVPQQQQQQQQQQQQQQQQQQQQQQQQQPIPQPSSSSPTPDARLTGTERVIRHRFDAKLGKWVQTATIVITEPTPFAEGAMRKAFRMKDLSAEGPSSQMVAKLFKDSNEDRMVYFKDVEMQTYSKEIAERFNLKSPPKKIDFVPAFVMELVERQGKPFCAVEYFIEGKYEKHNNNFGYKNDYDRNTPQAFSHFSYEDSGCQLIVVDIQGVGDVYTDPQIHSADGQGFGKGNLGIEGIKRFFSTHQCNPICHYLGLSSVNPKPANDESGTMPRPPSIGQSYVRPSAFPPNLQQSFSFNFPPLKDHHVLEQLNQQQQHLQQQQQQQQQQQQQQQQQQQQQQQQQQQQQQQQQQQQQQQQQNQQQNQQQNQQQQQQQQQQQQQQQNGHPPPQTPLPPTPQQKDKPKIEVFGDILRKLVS

B1: QBP4 phage clone (Glutamine Binding Peptide 4 displayed on M13 phage) (peptide)
chain: WGLEHFAGNKR-pIII
notes: Assayed as purified M13 phage displaying the 11-mer at the amino terminus of pIII; not shown: pIII (Piii) capsid protein of phage M13; the 11-mer is added to its amino terminus; assayed as whole phage
[1]
  binding: binds

B2: QBP5 phage clone (Glutamine Binding Peptide 5 displayed on M13 phage) (peptide)
chain: WWRWNWATPVD-pIII
notes: as for B1
[1]
  binding: binds

B3: QBP6 phage clone (Glutamine Binding Peptide 6 displayed on M13 phage) (peptide)
chain: WHNYFHWWQDT-pIII
notes: as for B1
[1]
  binding: binds

B4: QBP1 phage clone (Glutamine Binding Peptide 1 displayed on M13 phage) (peptide)
chain: SNWKWWPGIFD-pIII
notes: as for B1
[1]
  binding: binds

B5: glutamine binding peptide 1-CFP fusion protein (peptide, not shown: large carriers)
chain: SNWKWWPGIFD
[2]
  binding: binds

B6: QBP2 phage clone (Glutamine Binding Peptide 2 displayed on M13 phage) (peptide)
chain: HWWRSWYSDSV-pIII
notes: as for B1
[1]
  binding: binds

B7: QBP3 phage clone (Glutamine Binding Peptide 3 displayed on M13 phage) (peptide)
chain: HEWHWWHQEAA-pIII
notes: as for B1
[1]
  binding: binds

From patent publication US20020009752A1 (DUKE UNIVERSITY, published 2002)
